According to EP4786487A1 (Peptidream Inc, priority 2023, dated 2025):
HELM strings list residues between dots; [ac] is acetyl, [am] amide, other brackets name non-standard units.

Key:
[1] = general procedure: Fmoc solid-phase peptide synthesis; Sieber amide resin; HATU/DIEA; conditions: whole synthesis, UV 225 nm
[2] = general procedure: Fmoc solid-phase peptide synthesis; H-dc(Trt)-Trt(2-Cl) resin; Sieber amide resin; Cl-Trt(2-Cl) resin (Watanabe Chemical Industries); HATU/DIEA; conditions: UV 225 nm
[3] = general procedure: Fmoc solid-phase peptide synthesis; H-A-Trt(2-Cl) resin; HATU/DIEA; conditions: whole synthesis, UV 225 nm
[4] = general procedure: Fmoc solid-phase peptide synthesis; H-dc(Trt)-Trt(2-Cl) resin; HATU/DIEA; conditions: whole synthesis, UV 225 nm
[5] = general procedure: Fmoc solid-phase peptide synthesis; H-G-Trt(2-Cl) resin; HATU/DIEA; conditions: UV 225 nm

Substance	final purity (method not given) ([2]; whole synthesis) [%]	other results
PEPTIDE1{[ClAcT].[CrpG].A.W.Y.[MeF].I.[MeA].[F3aao].[F4COO].R.[MeF].[Ano].[MeA].[MeF].[dC_S].[am]}$PEPTIDE1,PEPTIDE1,1:R3-16:R3$$$V2.0		final purity (method not given) [1]: 95.0%
PEPTIDE1{[CrpG].A.W.Y.[MeF].I.[MeA].[F3aao].[F4COO].R.[MeF].[Ano].[MeA].[MeF].[dA].[MeA]}$PEPTIDE1,PEPTIDE1,1:R1-16:R2$$$V2.0		final purity (method not given) [2]: 92.0%
PEPTIDE1{A.A.[W6H1Ph4COO].Y.[MeF].I.[dP].[F3aao].[F4COO].R.[MeF].[Ano].[MeA].[MeF].[dA].[MeA]}$PEPTIDE1,PEPTIDE1,1:R1-16:R2$$$V2.0		final purity (method not given) [3]: 96.0%
PEPTIDE1{[ClAcT].[CrpG].A.W.Y.[MeF].I.[MeG].Y.[F4COO].R.[MeF].L.[MeA].[MeF].[dC_S]}$PEPTIDE1,PEPTIDE1,1:R3-16:R3$$$V2.0		final purity (method not given) [4]: 97.8%
PEPTIDE1{[ClAcT].[CrpG].A.W.Y.[MeF].I.[MeA].[F3aao].[F4COO].R.[MeF].[Ano].[MeA].[MeF].[dC_S]}$PEPTIDE1,PEPTIDE1,1:R3-16:R3$$$V2.0		final purity (method not given) [4]: 99.1%
PEPTIDE1{[MeA].A.W.Y.[MeF].I.[MeA].[F3aao].[F4COO].R.[MeF].[Ano].[MeA].[MeF].G.[MeA]}$PEPTIDE1,PEPTIDE1,1:R1-16:R2$$$V2.0		final purity (method not given) [5]: 97.5%
PEPTIDE1{[CH2CO].[CrpG].A.[W6H1Ph4COO].Y.[MeF].I.[dP].[F3aao].[F4COO].R.[MeF].[Ano].[MeA].[MeF].[dC].[Pip4mAc].[am]}$PEPTIDE1,PEPTIDE1,1:R3-16:R3$$$V2.0	98.3	
PEPTIDE1{[CrpG].A.[W6H1Ph4COO].Y.[MeF].I.[dP].[F3aao].[F4COO].R.[MeF].[Ano].[MeA].[MeF].[dA].[MeA]}$PEPTIDE1,PEPTIDE1,1:R1-16:R2$$$V2.0	95.0	
PEPTIDE1{[CeG].A.[W6H1Ph4COO].Y.[MeF].I.[dP].[F3aao].[F4COO].R.[MeF].[Ano].[MeDap].[MeF].[dA].[MeA]}$PEPTIDE1,PEPTIDE1,1:R1-16:R2|PEPTIDE1,PEPTIDE1,1:R3-13:R3$$$V2.0	94.1	
PEPTIDE1{[ClAcT].A.A.W.Y.[MeYap].I.[MeG].[F3aao].[F4COO].R.[MeF].[Ano].[MeA].[MeF].[dC_S].[pipzAc]}$PEPTIDE1,PEPTIDE1,1:R3-16:R3$$$V2.0	99.6	
PEPTIDE1{[CH2CO].[CeG].A.[W6H1Ph4COO].Y.[MeF].I.[dP].[F3aao].[F4COO].R.[MeF].[Ano].[MeDap].[MeF].[dC].[Pip4mAc].[am]}$PEPTIDE1,PEPTIDE1,1:R3-16:R3|PEPTIDE1,PEPTIDE1,2:R3-14:R3$$$V2.0	98.7	
PEPTIDE1{[MeHgl].A.[W6H1Ph4COO].Y.[MeF].I.[dP].[F3aao].[F4COO].R.[MeF4am].[Ano].[MeA].[MeF].[dA].[MeA]}$PEPTIDE1,PEPTIDE1,1:R1-16:R2|PEPTIDE1,PEPTIDE1,1:R3-11:R3$$$V2.0	92.9	
